From the supplement of paper PMC10849652
The other results are listed elsewhere or left out.

Amino acid sequences for entries named in this document (tags omitted). A change or cut given only in a name is not applied to a line headed by its entry.
UniProt Q00325: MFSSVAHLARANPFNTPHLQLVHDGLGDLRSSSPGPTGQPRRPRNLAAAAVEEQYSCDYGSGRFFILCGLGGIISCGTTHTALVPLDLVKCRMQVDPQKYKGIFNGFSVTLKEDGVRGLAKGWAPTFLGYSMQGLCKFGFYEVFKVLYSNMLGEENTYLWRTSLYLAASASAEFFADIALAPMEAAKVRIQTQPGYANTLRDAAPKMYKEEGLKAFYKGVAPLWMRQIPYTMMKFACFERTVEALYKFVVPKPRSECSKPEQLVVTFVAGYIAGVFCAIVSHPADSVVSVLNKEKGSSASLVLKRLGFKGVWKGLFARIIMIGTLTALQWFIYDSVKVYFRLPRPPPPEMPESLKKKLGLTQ
UniProt O15198: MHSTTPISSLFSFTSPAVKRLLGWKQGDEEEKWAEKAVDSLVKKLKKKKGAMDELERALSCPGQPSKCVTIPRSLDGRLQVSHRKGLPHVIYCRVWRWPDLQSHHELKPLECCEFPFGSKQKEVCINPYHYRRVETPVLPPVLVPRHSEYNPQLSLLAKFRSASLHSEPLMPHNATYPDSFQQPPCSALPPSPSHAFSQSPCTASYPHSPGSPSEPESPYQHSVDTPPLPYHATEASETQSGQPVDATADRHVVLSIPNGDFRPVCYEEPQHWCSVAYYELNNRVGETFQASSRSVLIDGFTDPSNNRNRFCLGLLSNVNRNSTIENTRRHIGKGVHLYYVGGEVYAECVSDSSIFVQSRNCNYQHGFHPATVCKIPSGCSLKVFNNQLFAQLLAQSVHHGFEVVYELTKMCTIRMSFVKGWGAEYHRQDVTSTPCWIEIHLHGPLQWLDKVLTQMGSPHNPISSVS
UniProt Q96BI1: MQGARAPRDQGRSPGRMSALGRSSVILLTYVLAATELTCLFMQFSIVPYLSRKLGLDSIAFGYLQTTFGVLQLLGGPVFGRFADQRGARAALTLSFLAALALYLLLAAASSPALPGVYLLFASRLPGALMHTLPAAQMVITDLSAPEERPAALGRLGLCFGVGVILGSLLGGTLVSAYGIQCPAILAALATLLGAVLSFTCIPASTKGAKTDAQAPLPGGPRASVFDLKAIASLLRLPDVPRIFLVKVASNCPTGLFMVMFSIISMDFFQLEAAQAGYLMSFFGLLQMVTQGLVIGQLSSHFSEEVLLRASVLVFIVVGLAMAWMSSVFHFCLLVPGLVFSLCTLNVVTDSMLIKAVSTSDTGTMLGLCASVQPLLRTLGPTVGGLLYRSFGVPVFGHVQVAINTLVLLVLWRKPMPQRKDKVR
UniProt P48067: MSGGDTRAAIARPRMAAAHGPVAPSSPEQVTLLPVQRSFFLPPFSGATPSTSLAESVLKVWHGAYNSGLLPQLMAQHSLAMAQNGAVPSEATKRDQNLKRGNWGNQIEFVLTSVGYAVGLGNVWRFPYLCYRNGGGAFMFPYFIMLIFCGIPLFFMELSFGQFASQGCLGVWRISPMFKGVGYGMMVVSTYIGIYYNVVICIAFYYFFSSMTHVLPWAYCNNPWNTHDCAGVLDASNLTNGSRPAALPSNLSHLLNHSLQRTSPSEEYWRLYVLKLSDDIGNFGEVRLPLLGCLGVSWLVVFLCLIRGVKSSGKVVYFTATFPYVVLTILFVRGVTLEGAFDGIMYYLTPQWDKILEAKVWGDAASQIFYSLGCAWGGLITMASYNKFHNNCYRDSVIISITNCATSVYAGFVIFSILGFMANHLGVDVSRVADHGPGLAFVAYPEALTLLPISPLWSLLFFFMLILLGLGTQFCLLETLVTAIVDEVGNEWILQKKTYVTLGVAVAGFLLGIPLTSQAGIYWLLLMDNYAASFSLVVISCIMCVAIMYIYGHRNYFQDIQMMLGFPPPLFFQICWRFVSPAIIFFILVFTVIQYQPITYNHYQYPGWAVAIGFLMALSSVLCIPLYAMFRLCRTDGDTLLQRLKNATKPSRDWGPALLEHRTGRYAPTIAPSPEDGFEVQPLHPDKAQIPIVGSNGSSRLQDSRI
UniProt Q8IYB5: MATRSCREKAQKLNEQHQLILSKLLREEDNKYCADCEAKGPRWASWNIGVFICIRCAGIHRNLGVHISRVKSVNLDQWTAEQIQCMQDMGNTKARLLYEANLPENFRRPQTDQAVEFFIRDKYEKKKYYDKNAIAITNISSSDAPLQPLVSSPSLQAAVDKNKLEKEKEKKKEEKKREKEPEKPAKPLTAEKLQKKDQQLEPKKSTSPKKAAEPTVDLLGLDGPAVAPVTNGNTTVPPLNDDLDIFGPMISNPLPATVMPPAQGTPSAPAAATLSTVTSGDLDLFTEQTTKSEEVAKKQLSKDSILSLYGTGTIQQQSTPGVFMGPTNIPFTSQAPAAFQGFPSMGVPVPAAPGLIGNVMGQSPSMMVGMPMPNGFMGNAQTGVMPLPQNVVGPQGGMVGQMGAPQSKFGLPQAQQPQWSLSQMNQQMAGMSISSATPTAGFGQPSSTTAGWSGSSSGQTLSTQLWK
UniProt Q969S0: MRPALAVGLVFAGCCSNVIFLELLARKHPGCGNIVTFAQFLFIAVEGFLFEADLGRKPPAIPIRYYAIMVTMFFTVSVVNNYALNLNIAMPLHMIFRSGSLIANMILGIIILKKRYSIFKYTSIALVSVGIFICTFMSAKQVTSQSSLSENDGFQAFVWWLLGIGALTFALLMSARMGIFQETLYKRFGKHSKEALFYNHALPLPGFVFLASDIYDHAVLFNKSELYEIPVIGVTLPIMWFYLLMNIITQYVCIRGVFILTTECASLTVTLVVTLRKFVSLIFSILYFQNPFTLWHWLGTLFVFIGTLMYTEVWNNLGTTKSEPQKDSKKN
UniProt O14745: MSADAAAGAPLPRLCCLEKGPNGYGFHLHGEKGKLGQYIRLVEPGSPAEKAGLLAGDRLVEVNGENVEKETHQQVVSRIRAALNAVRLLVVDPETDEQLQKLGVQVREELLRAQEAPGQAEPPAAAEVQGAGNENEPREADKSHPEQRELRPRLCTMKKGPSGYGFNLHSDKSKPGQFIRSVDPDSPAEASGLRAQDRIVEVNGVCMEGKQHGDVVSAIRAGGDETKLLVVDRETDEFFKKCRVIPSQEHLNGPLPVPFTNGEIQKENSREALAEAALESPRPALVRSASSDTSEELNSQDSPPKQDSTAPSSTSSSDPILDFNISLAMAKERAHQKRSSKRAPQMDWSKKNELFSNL
UniProt Q9H2D1: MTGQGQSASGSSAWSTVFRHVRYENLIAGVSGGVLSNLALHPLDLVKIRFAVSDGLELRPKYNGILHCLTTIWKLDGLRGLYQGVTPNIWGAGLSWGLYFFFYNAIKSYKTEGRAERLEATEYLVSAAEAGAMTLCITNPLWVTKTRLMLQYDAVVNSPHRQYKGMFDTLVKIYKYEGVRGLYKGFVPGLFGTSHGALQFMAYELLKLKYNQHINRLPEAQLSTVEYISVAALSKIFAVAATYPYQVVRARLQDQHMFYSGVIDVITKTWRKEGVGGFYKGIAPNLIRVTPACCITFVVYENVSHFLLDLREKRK
UniProt Q9Y289: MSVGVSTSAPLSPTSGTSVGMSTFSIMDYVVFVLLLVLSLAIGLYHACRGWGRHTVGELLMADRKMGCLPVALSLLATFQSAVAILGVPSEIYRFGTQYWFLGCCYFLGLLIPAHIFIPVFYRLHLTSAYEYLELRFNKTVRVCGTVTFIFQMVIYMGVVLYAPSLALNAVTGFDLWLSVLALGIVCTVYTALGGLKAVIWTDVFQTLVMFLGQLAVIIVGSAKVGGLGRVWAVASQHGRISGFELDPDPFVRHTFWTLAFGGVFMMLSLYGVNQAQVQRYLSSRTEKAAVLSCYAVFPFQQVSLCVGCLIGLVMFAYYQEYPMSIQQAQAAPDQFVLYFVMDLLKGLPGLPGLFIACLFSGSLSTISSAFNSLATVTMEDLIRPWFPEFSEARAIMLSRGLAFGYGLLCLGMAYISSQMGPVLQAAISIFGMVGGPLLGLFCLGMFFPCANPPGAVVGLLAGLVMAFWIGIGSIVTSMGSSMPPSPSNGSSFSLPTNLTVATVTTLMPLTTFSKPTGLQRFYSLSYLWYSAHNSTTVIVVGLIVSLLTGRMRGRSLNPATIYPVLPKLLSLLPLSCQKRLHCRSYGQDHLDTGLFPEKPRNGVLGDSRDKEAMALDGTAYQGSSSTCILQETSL
UniProt Q96AG3: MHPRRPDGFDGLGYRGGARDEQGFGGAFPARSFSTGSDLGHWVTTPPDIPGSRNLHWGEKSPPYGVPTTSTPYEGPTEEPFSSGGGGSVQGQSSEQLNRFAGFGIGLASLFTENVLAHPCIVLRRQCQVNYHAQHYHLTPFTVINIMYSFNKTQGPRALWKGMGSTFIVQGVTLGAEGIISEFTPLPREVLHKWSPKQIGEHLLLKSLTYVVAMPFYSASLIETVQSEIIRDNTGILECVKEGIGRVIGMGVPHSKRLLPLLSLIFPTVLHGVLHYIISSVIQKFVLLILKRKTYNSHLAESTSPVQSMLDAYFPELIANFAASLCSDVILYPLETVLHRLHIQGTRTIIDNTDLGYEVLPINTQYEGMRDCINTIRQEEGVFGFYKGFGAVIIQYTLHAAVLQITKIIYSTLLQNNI
UniProt P78382: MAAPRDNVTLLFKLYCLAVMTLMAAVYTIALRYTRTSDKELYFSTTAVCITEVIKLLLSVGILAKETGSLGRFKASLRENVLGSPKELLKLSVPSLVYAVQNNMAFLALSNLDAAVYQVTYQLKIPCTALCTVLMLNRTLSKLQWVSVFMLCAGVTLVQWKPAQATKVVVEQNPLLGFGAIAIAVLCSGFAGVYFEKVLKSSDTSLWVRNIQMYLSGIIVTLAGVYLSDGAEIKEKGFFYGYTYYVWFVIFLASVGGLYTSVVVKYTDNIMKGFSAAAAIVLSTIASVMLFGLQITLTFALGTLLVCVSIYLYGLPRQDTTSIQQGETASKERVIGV
UniProt Q8WUX1, whole entry, looked up: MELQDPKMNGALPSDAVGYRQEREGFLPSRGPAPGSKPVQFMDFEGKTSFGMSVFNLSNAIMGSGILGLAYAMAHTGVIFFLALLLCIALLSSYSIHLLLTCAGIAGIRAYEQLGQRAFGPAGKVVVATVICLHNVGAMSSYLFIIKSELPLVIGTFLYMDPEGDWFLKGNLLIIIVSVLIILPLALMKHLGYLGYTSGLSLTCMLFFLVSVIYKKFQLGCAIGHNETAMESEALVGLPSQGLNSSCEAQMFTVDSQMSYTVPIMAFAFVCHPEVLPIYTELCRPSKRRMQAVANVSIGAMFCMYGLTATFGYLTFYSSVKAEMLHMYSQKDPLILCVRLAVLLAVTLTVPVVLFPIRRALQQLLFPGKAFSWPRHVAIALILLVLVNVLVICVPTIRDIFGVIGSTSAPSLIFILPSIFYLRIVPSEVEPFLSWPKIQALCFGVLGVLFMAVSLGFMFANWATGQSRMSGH
UniProt O75746: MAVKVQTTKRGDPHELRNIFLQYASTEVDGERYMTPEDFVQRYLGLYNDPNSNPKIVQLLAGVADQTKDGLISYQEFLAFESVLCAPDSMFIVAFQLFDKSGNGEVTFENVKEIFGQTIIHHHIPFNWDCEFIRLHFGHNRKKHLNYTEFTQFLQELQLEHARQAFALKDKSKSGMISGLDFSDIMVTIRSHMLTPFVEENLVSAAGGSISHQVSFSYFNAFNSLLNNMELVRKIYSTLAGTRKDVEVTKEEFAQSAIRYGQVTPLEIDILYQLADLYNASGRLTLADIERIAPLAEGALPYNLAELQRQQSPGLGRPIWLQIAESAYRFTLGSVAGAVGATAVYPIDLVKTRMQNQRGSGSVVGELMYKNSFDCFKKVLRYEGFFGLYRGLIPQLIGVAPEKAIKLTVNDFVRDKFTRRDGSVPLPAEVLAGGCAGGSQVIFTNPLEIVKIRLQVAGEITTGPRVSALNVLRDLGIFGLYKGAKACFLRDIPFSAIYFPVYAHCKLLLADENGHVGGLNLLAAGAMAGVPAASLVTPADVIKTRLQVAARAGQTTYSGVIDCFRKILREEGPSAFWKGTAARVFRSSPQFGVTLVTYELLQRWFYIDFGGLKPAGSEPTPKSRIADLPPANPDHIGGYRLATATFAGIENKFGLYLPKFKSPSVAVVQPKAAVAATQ
UniProt O00400: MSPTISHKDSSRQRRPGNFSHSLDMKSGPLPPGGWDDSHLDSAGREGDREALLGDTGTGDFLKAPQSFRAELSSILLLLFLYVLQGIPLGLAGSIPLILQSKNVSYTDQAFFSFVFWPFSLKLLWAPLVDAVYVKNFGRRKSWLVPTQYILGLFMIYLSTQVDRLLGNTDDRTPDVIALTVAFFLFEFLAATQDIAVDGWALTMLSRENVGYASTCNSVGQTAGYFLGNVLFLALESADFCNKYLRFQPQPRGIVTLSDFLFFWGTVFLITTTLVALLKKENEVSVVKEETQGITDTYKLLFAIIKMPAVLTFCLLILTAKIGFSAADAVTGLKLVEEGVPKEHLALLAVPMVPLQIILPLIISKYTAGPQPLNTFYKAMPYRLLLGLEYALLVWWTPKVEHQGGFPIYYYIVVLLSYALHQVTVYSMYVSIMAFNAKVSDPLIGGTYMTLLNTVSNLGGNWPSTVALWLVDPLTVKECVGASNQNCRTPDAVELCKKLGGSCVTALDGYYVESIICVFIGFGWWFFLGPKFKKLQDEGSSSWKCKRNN

Columns and labels:
Assay in all cases: log2 fold change, soluble protein after heating vs DMSO (PISA); higher = thermal stabilisation; K562 lysate, 10 uM; active = over 0.2 and 3.5 SD of the protein, either way, in both replicates (recomputed)
[1] = compound: C1=CC=C(C=C1)[C@H](COC2=CC3=C(C=C2)NC(=O)N3)NC(=O)C4=CC=CN(C4=O)CC5=CC(=C(C=C5)F)F
Summary of the method: (§1)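 Dounce homogenisation of K562 pellets in PBS pH 7.4 with 1 mM MgCl2 produced a crude extract, used at 1 mg/mL protein. Exposure to 10 μM compound lasted 30 min, and aliquots were then heated for 3 min across 48°C-58°C, pooled and brought to 0.5% NP-40 at 4°C. The supernatant after 21,000xg for 90 min was quantified by TMTpro 16plex LC-MS/MS with channel sums equalised. Duplicate values are given as log-two fold change in thermal stability relative to solvent controls.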

[2] = compound: CC1=C(SC2=C1C(=N[C@H](C3=NN=C(N32)C)CC(=O)N)C4=CC=C(C=C4)Cl)C
Summary of the method: as §1

[3] = compound: CC1=C2C(=CC=C1)N=C(N(C2=O)C3=CC=CC=C3C)CN4C=NC5=C(N=CN=C54)N
Summary of the method: as §1

[4] = compound: Cc1sc2c(c1C)C(c1ccc(Cl)cc1)=N[C@@H](CC(=O)OC(C)(C)C)c1nnc(C)n1-2
Summary of the method: as §1

[5] = compound: c1ccc([C@@H]2C[C@H]2NC2CCNCC2)cc1
Summary of the method: as §1

Measured: log2 fold change

SLC6A8 isoform 2 (UniProt P48029)
inactive: [1] 0.112 | [2] -0.036 | [3] 0 | [4] -0.22 | [5] 0.038

SLC25A3 isoform 2 (UniProt Q00325)
inactive: [1] 0.019 | [2] 0.025 | [3] -0.003 | [4] -0.024 | [5] -0.06

SLC25A11 (UniProt Q02978)
inactive: [1] 0.01 | [2] 0.006 | [3] 0 | [4] -0.006 | [5] -0.061

SMAD9 (UniProt O15198)
inactive: [1] 0.102 | [2] -0.074 | [3] 0.058 | [4] -0.099 | [5] 0.042

SLC27A4 (UniProt Q6P1M0)
inactive: [1] 0.106 | [2] -0.006 | [3] 0.054 | [4] -0.002 | [5] 0.121

SLC22A18 (UniProt Q96BI1)
inactive: [1] 0.07 | [2] 0.048 | [3] -0.036 | [5] -0.088

SLC6A9 isoform 2 (UniProt P48067)
inactive: [1] -0.042 | [2] -0.028 | [3] 0.069 | [4] -0.035 | [5] -0.055

SMAP1 isoform 2 (UniProt Q8IYB5)
inactive: [1] 0.019 | [2] 0.002 | [3] 0.097 | [4] -0.015 | [5] -0.066

2 neighbouring entries from above, for reference:
SLC6A8 isoform 2 (UniProt P48029)
inactive: [1] 0.112 | [2] -0.036 | [3] 0 | [4] -0.22 | [5] 0.038

SLC25A3 isoform 2 (UniProt Q00325)
inactive: [1] 0.019 | [2] 0.025 | [3] -0.003 | [4] -0.024 | [5] -0.06

(continued)

SLC25A31 (UniProt Q9H0C2)
inactive: [1] 0.01 | [2] 0.026 | [3] -0.074 | [4] -0.003 | [5] 0.015

SLC35B4 (UniProt Q969S0)
inactive: [1] -0.097 | [2] -0.044 | [3] -0.086 | [5] -0.007

SLC9A3R1 (UniProt O14745)
inactive: [1] 0.015 | [2] 0.013 | [3] 0.002 | [4] 0.003 | [5] -0.012

SLC4A2 (UniProt P04920)
inactive: [1] 0.042 | [2] -0.001 | [3] -0.01 | [4] 0.074 | [5] 0.017

SLC25A32 (UniProt Q9H2D1)
inactive: [1] 0.032 | [2] 0.014 | [3] 0.016 | [4] -0.053 | [5] -0.06

SLC39A14 (UniProt Q15043)
inactive: [1] 0.037 | [2] -0.054 | [3] 0.005 | [4] -0.02 | [5] -0.002

SLC5A6 (UniProt Q9Y289)
inactive: [1] -0.036 | [2] -0.011 | [3] -0.017 | [4] -0.06 | [5] -0.04

SLC25A46 (UniProt Q96AG3)
inactive: [1] 0.001 | [2] -0.01 | [3] 0.019 | [4] -0.022 | [5] 0.004

SLC38A7 (UniProt Q9NVC3)
inactive: [1] 0.022 | [2] -0.043 | [3] -0.006 | [4] 0.111 | [5] 0.027

SLC35A1 (UniProt P78382)
inactive: [1] -0.053 | [2] -0.022 | [3] 0.045 | [5] -0.109

SLC35A4 (UniProt L0R6Q1)
inactive: [1] -0.042 | [2] -0.01 | [3] 0.063 | [4] -0.049 | [5] -0.084

SLC38A5 (UniProt Q8WUX1)
inactive: [1] -0.016 | [2] 0.006 | [3] 0.011 | [4] -0.096 | [5] -0.083

SLC44A2 (UniProt Q8IWA5)
inactive: [1] 0.136 | [2] -0.076 | [3] -0.037 | [4] 0.094 | [5] 0.124

SLC25A22 (UniProt Q9H936)
inactive: [1] -0.009 | [2] 0.031 | [3] -0.025 | [4] 0.04 | [5] -0.037

SLC25A12 (UniProt O75746)
inactive: [1] 0.038 | [2] -0.011 | [3] -0.04 | [4] 0.024 | [5] -0.015

SLC33A1 (UniProt O00400)
inactive: [1] -0.006 | [2] -0.053 | [3] -0.059 | [4] -0.021 | [5] 0.054
